The source of these data is paper PMC6876112.

Sequences of proteins named here, by UniProt entry; tags and fusion partners are left off.
UniProt P35222: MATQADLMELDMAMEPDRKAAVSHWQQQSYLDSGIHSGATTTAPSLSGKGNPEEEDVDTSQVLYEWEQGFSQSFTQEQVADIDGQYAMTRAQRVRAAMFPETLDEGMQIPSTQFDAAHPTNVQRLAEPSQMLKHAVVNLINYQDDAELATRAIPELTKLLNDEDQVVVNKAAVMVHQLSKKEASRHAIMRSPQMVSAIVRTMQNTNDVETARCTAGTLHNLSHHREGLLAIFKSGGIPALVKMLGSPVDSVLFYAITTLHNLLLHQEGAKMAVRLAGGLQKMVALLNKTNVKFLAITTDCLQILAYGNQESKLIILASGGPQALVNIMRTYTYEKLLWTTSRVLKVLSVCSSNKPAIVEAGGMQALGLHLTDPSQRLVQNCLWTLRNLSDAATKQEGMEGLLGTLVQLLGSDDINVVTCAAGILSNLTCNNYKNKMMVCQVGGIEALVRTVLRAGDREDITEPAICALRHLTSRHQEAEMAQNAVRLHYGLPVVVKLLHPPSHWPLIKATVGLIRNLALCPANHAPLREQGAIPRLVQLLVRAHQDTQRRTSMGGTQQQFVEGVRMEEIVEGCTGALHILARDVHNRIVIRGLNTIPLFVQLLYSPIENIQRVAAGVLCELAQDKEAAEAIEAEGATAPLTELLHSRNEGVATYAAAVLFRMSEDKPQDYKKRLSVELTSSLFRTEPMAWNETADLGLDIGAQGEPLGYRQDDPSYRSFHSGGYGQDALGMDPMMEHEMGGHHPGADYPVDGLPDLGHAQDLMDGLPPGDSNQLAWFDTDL

This test addresses Myc-tagged beta-catenin (UniProt P35222). Put plainly: co-IP; U2OS or Saos-2 cells transfected with Myc-beta-catenin, Flag-LHX9 or both, 48 h; lysis in 20 mM Tris pH 7.5, 150 mM NaCl, 1 mM EDTA, 1% Triton X-100; precipitated with anti-Myc tag antibody and Protein A/G agarose at 4 °C; blot probed with anti-Flag tag antibody.

No constants are given. Whether binding was seen depends on the method and setting. In cells and extracts the contact can be indirect. Some results given as binding are weak or reduced against the parent protein; the word gives no strength. Tags and fused reporters may be left off the sequences shown.

B1: Flag-tagged LHX9 (protein, UniProt Q9NQ69 1-397)
chain: MEIVGCRAEDNSCPFRPPAMLFHGISGGHIQGIMEEMERRSKTEARLAKGAQLNGRDAGMPPLSPEKPALCAGCGGKISDRYYLLAVDKQWHLRCLKCCECKLALESELTCFAKDGSIYCKEDYYRRFSVQRCARCHLGISASEMVMRARDSVYHLSCFTCSTCNKTLTTGDHFGMKDSLVYCRAHFETLLQGEYPPQLSYTELAAKSGGLALPYFNGTGTVQKGRPRKRKSPALGVDIVNYNSGCNENEADHLDRDQQPYPPSQKTKRMRTSFKHHQLRTMKSYFAINHNPDAKDLKQLAQKTGLTKRVLQVWFQNARAKFRRNLLRQENGGVDKADGTSLPAPPSADSGALTPPGTATTLTDLTNPTITVVTSVTSNMDSHESGSPSQTTLTNLF
With B1, the binding result is listed as “binds”.
